We go through 102 molecules from the supplement of paper PMC11150407.

The structures appear in SMILES notation. About 45 (2%) of roughly 3,000 compounds showed an effect of 50% or more. The list shows a part of the results.

This assay relates to MOLM1 and UCSD/AML1 (averaged). The assay can be described thus: cell viability relative to DMSO control (POC); higher = less growth inhibition. The note with it: 1 µM; 72 h. As for the experimental part:
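Primary viability screen in the 3q26 EVI1-high AML cell lines MOLM1 and UCSD/AML1, compounds at 1 uM for 72 h. ATP CellTiter-Glo read-out given as percent viable over DMSO control (POC), averaged over duplicates. This mapping covers the TimTec NDL-3000 natural derivative library, whose compounds are identified by TimTec catalogue codes (ST...).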
As to `CCOc1ccc(-c2oc3ccccc3c(=O)c2O)cc1OCC`, the cell viability stood at 94%. With `COc1ccc2c(CN3CCc4ccccc4C3)cc(=O)oc2c1`, the cell viability worked out at 97.1%. Under `O=C(O)CC(NCc1ccccc1)C(=O)O` (configuration not stated) stands 103%; under `COc1cc(OC)cc(C(=O)Nc2sc(Nc3ccc(C)cc3)nc2C(N)=O)c1`, 95.8%. For `COc1cc(OC)cc(C(=O)Nc2ccc3c(c2)NC(=O)C(C)O3)c1` (configuration not stated) the value was 97.5%; for `CCCNC(=O)c1cc(=O)n(CC(=O)Nc2ccc(F)cc2)c2ccccc12`, 106%. `COc1ccc2[nH]c(C)c(CCNC(=O)C(F)(F)F)c2c1`: the cell viability was 102%.

Consider `CCCNC(=O)c1cc(=O)n(CC(=O)Nc2ccc(Br)cc2F)c2ccccc12`, for which the cell viability stood at 87.6%. For `CCc1ccc2oc(-c3ccccc3)cc(=NCCO)c2c1` the value was 96.3%; for `COCCOC(=O)c1c(C)n(CCOCc2ccc(Cl)cc2)c2ccc(O)cc12`, 90.9%; for `Cc1oc(-c2ccc(Cl)cc2)nc1CSc1nc2c(=O)[nH]cnc2n1-c1ccccc1`, 104%.

With `O=C1CC(n2nnnc2-c2ccccc2Cl)C2COC1O2` (configuration not stated), the cell viability was 64.4%. Consider `Cc1ccccc1C(=O)NCCc1c(C)[nH]c2c(C)ccc(F)c12`, for which the cell viability amounted to 84.5%. Under `CCn1c(SCC(=O)Nc2ccccc2C(F)(F)F)nc2c(=O)[nH]cnc21` stands 93.4%. On to `COc1ccc(CCNC(=O)COc2ccc(C)cc2)cc1OC`, for which the cell viability is 101%. For `C=C(C)C1CCC2(C(=O)OC)CCC3(C)C(CCC4C5(C)CCC(=O)C(C)(C)C5CCC43C)C12` (configuration not stated) the value was 99%; for `CNC(=O)c1cc(=O)n(CC(=O)Nc2cccc(C(F)(F)F)c2)c2ccccc12`, 116%; for `CCOC(=O)C(CC)Oc1ccc2c(=O)c(Oc3ccccc3Cl)coc2c1` (configuration not stated), 94.4%.

Regarding `COC(=O)C(Cc1ccccc1)NC(=O)C(N)CC(=O)O` (configuration not stated), the cell viability was 106%.

On to `COc1cc2c(cc1OC)C(Cc1ccccc1)NCC2` (configuration not stated), for which the cell viability was 94.6%. Under `CCc1[nH]nc2c1C(c1ccc(O)c(OC)c1)C(C#N)=C(N)O2` (configuration not stated) stands 107%. For `Cc1cc2c(C(C)C)c(O)c(O)c(/C=N/Nc3nnnn3-c3ccccc3)c2c(O)c1-c1c(C)cc2c(C(C)C)c(O)c(O)c(/C=N/Nc3nnnn3-c3ccccc3)c2c1O` the value was 86.1%.

As to `CCc1c(O)c2c(C)cc(C)cc2[nH]c1=O`, the cell viability was 94.9%. In the case of `CC(=O)OC1CCC2(C)C(CCC3(C)C2C(=O)C=C2C4CC(C)(C(=O)Nc5ccc(C)cc5)CCC4(C)CCC23C)C1(C)C` (configuration not stated), the cell viability came out at 96.2%. Consider `Cc1ccc(NC(=O)CN2C(=O)S/C(=C/c3cc4c(cc3Cl)OCO4)C2=O)cc1C`, for which the cell viability is 93.4%. Under `CC1(C)CCC23CCC4(C)C(CCC5C6(C)CCC(O)C(C)(C)C6CCC54C)C2C1OC3` (configuration not stated) stands 87.5%; under `COc1ccc(/C=C/C=C/C(=O)O)cc1OC`, 97.4%; under `Cc1[nH]c2ccc(OC(F)(F)F)cc2c1CCNC(=O)c1cccc([N+](=O)[O-])c1`, 84.3%.

`O=C(CCNc1cccc(F)c1)c1ccc2c(c1)OCO2`: the cell viability was determined as 105%. On to `CCCCCOC(=O)C1=C(C)NC2=C(C(=O)CC(C)(C)C2)C1c1cc(Cl)c(O)c(OC)c1` (configuration not stated), for which the cell viability turned out to be 101%. For `Cc1ccc2c(CN3CCN(Cc4cccc(F)c4)CC3)cc(=O)oc2c1` the value was 102%. For `COc1ccc(C(=O)N2CCN(c3cccc(Cl)c3)CC2)cc1OC` the value was 99%; for `O=C1ON=C(c2cccc([N+](=O)[O-])c2)/C1=C/c1ccc2c(c1)OCO2`, 102%.

For the molecule `COc1ccc(C(=O)Nc2ccccc2C(=O)OCC(=O)c2ccc(Cl)cc2)cc1OC`, the cell viability is 93.1%. `CCOC(=O)C(=O)Nc1ccccc1`: the cell viability turned out to be 92.2%. For `O=C(CNC(=O)OCc1ccccc1)NC(Cc1ccc(O)cc1)C(=O)O` (configuration not stated) the value was 100%; for `N#CC1=C(N)Oc2c(c(=O)oc3ccccc23)C12C(=O)N(Cc1ccc(Cl)cc1)c1ccccc12` (configuration not stated), 98.4%; for `Cc1ccc(C2=NOC(=O)/C2=C\c2ccc3c(c2)OCO3)cc1C`, 100%. For `O=C(Cn1c(=O)cc(C(=O)N2CCCC2)c2ccccc21)Nc1ccccc1F` the value was 97.3%; for `COc1ccc(-c2nc(CSc3nc4c(=O)[nH]cnc4n3-c3ccc(C)cc3)c(C)o2)cc1`, 101%; for `Cc1nc2ccccc2c(C(=O)O)c1O`, 106%. Consider `O=C(Cn1c(=O)cc(C(=O)N2CCCCC2)c2ccccc21)Nc1ccccc1F`, for which the cell viability came to 93%. As for `COc1ccc(/C=C2/c3cc(C)ccc3-c3ncccc32)cc1`, the cell viability amounted to 95.8%.

In the case of `COCCOC(=O)c1c(C)n(CCOc2ccccc2Cl)c2c1cc(O)c1ccccc12`, the cell viability stood at 97.1%. As to `CCN(CC)C(=O)c1cc(=O)n(CC(=O)Nc2ccccc2F)c2ccccc12`, the cell viability amounted to 91%.

Take `O=C(/C=C/c1ccc([N+](=O)[O-])cc1)c1cccc2ccccc12`: the cell viability was determined as 32.8%. For the molecule `O=C(O)C1Nc2c(O)cc(Cl)c([N+](=O)[O-])c2C2C=CCC12` (configuration not stated), the cell viability amounted to 99.4%.

`CC(C)(C)OC(=O)N[C@@H](Cc1cn(-c2ccc([N+](=O)[O-])cc2[N+](=O)[O-])cn1)C(=O)O`: the cell viability turned out to be 108%.

Consider `CCCCCCC(O)C(N)C(=O)O` (configuration not stated), for which the cell viability was found to be 107%. For `COCCOC(=O)C1=C(C)NC2=C(C(=O)CCC2)C1c1cc(Br)c(O)c(OC)c1` (configuration not stated) the value was 109%; for `COc1ccc(C(=O)NCCc2c(C)[nH]c3ccc(F)cc23)cc1OC`, 103%; for `COc1cc(C=O)cc(O)c1OC`, 104%.

In the case of `COc1cc(C2Nc3ccccc3C(=O)N2c2ccc(C)cc2)cc(OC)c1OC` (configuration not stated), the cell viability was determined as 106%. Under `CC1(C)C2CCC1(CS(=O)(=O)Nc1ccncc1)C(=O)C2` (configuration not stated) stands 106%; under `Cn1c(SCC(=O)Nc2ccccc2Cl)nc2c(=O)[nH]cnc21`, 107%. On to `C=C(C)C1CCC2(C(=O)OC)CCC3(C)C(CCC4C5(C)C/C(=C\c6ccc(OCC)cc6)C(=O)C(C)(C)C5CCC43C)C12` (configuration not stated), for which the cell viability turned out to be 98.5%. For the molecule `COc1cc2c(cc1OC)C(c1cc(OC)c(O)c(OC)c1)CC(=O)N2` (configuration not stated), the cell viability was found to be 99.5%.

Consider `COc1ccc(C2CC(=O)C3=C(C2)Nc2ccccc2NC3c2cc(Br)c(O)c(OC)c2)cc1OC` (configuration not stated), for which the cell viability was 105%. Turning to `CC(C)COc1ccc2[nH]c3c(c2c1)CCCC3=O`, the cell viability stood at 90.6%.

As for `COc1cc(C(=O)NCCc2c(C)[nH]c3ccccc23)cc(OC)c1OC`, the cell viability is 81.5%. As for `C#CC(C)(CC)NC(=O)c1ccc(OC)c(OC)c1` (configuration not stated), the cell viability worked out at 104%.

In the case of `N[C@@H](C(=O)O)[C@@H](O)[C@H](O)[C@H](O)CO`, the cell viability was 87.1%. For `O=C(NC(Cc1c[nH]c2ccccc12)C(=O)O)c1ccco1` (configuration not stated), the cell viability turned out to be 91.7%.

Take `CCOC(=O)C1=C(C)NC(=O)NC1c1ccc(O)cc1` (configuration not stated): the cell viability came to 102%. For `N#C/C(=C\c1ccc(N2CCOCC2)o1)C(=O)NCCc1c[nH]c2ccccc12`, the cell viability was determined as 127%.

Regarding `CC(=O)c1nc2ccccc2n1CC(=O)NCCOc1ccccc1`, the cell viability amounted to 98.2%. For the molecule `Cc1ccc2[nH]c(C)c(CCNC(=O)c3cc4cc(Br)ccc4oc3=O)c2c1`, the cell viability stood at 102%. For `CCc1c(C)sc(NC(=O)c2ccc(OC)c(OC)c2)c1C(N)=O` the value was 87.1%; for `CC(=O)OC1CCC2(C)C3CCC4(C)C(/C(C)=N\O)=CCC4C3CC[C@H]2C1` (some centres not stated), 92.9%.

For the molecule `CCn1ncc(C(=O)NC2C(=O)N3C(C(=O)O)=C(C)CSC23)c1C` (configuration not stated), the cell viability amounted to 101%. Turning to `COc1ccc(S(=O)(=O)N2Cc3ccccc3CC2C(=O)Nc2ccc(C(C)=O)cc2)cc1OC` (configuration not stated), the cell viability was found to be 108%.

Regarding `O=C(O)CCC(=O)NC(Cc1c[nH]c2ccccc12)C(=O)O` (configuration not stated), the cell viability was determined as 97.4%. As to `CCOc1ccc(C(=O)Nc2ccc(Br)cc2)cc1OCC`, the cell viability worked out at 86.9%.

Regarding `CCOC(=O)CNC(=O)c1cccc(Cl)c1`, the cell viability came out at 109%. Under `Cc1cc2c(c(O)c1-c1c(C)cc3c(c1O)/C(=C/Nc1c(O)cc(S(=O)(=O)O)c4ccccc14)C(=O)C(O)=C3C(C)C)/C(=C/Nc1c(O)cc(S(=O)(=O)O)c3ccccc13)C(=O)C(O)=C2C(C)C` stands 90.5%. Take `CSc1nc(N)nc2nc[nH]c12`: the cell viability worked out at 98.9%.

For `COc1cc(C2NC(=O)NC(C)=C2C(=O)OCCOC(C)C)cc(Br)c1O` (configuration not stated), the cell viability was determined as 99.6%. For `CCOc1cc(C2NC(=O)NC(C)=C2C(=O)NCc2ccccc2)ccc1O` (configuration not stated) the value was 104%. For `COc1cc(C(C)=O)ccc1OCc1ccccc1F` the value was 96.8%; for `Cc1ccc(NC(=O)CN2C(=O)S/C(=C/c3cc4c(cc3Cl)OCO4)C2=O)cc1`, 92%; for `CCOC1OC2C(CO)OC(n3cnc4c(N)ncnc43)C2O1` (configuration not stated), 101%. For `CC/C(O)=C1\C(=O)CC(c2ccccc2)CC1=NCCc1c(C)[nH]c2ccc(OCc3ccccc3)cc12` (configuration not stated) the value was 94.7%. In the case of `CCCCCCCC(CCCC(=O)O)C(=O)O` (configuration not stated), the cell viability was found to be 101%. Under `COc1cc(OC)cc(C(=O)Nc2ccccc2C(=O)Nc2ccccc2Cl)c1` stands 95.1%. For the molecule `CCOc1cc(/C=C/C(=O)O)cc(OCC)c1OCC`, the cell viability worked out at 101%.

For `CC(=O)N/C(=C/c1ccc2c(c1)OCO2)C(=O)NCc1ccccc1`, the cell viability is 105%. Under `COc1ccc(C(=O)c2nccc3cc(OC)c(OC)cc23)cc1OC` stands 101%; under `CCOC(=O)C(Cc1c[nH]c2ccccc12)NS(=O)(=O)c1ccc2c(c1)OCCO2` (configuration not stated), 103%; under `CCC(O)/N=C/c1c(O)c(O)c(C(C)C)c2cc(C)c(-c3c(C)cc4c(C(C)C)c(O)c(O)c(/C=N/C(O)CC)c4c3O)c(O)c12` (configuration not stated), 88.9%. For `CCOC(=O)C1CC(c2ccccc2)N2CCCC12` (configuration not stated) the value was 94.5%; for `CCc1ccc2[nH]c(=O)cc(C)c2c1`, 103%. Under `CCCCOC(=O)C1=C(C)NC(=O)NC1c1cc(Cl)c(O)c(OC)c1` (configuration not stated) stands 94.5%; under `O=C(CSc1nc2ccccc2c(=O)[nH]1)Nc1ccc(F)c(Cl)c1`, 87.7%; under `CNC(=S)NCc1cc(OC)c(OC)c(OC)c1`, 97.9%. In the case of `CCOc1cc(C2C(C(=O)OCCc3ccccc3)=C(C)NC3=C2C(=O)CC(c2ccc(OC)cc2)C3)ccc1O` (configuration not stated), the cell viability is 109%. Under `COc1ccc(NC(=O)CSc2nc3c(=O)[nH]cnc3n2C)cc1` stands 86.1%; under `COc1cc(O)c(C(=O)/C=C/c2ccco2)c(OC)c1`, 112%; under `COc1ccc(C(=O)CCNc2ccc(-c3nncn3C)cc2)cc1OC`, 102%. With `Cc1ccc(N=Cc2c(O)c3ccccc3oc2=O)cc1C`, the cell viability amounted to 102%.

For the molecule `O=C(Cn1c(=O)cc(C(=O)N2CCc3ccccc3C2)c2ccccc21)Nc1cccc(Cl)c1`, the cell viability worked out at 101%. For `COc1cc(C(C)=O)ccc1OCc1ccc(Cl)cc1` the value was 88.6%; for `COc1ccc(/C=C/C(=O)c2ccc3c(c2)OCCO3)cc1COc1ccccc1`, 82.5%.
